For the test, the target named is T1, FLAG-tagged FKBP51 (FK506-binding protein 51), overexpressed in HEK293 cells (UniProt Q13451).
T1 sequence: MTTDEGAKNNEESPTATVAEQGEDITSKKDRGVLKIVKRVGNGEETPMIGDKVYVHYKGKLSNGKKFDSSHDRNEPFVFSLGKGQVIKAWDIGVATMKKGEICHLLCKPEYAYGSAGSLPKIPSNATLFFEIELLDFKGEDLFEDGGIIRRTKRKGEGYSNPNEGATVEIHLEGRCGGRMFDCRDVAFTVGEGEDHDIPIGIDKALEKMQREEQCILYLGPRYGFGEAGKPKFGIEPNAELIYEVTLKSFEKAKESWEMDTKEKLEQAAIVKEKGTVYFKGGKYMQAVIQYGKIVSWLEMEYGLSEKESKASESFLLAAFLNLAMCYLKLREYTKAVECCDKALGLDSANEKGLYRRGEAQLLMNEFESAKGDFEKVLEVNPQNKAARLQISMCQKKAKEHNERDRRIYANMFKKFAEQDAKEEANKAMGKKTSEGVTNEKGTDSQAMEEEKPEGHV
The experiment in a line: affinity purification with mass spectrometry.

The chains behind the UniProt entries cited, without tags or fusion partners.
UniProt O75396: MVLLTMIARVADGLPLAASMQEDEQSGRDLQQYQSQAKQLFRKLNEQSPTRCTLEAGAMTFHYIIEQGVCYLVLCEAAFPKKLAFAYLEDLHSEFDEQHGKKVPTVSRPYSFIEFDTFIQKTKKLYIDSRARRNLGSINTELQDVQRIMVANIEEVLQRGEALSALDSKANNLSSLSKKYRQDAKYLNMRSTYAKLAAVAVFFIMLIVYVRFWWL
UniProt P61081: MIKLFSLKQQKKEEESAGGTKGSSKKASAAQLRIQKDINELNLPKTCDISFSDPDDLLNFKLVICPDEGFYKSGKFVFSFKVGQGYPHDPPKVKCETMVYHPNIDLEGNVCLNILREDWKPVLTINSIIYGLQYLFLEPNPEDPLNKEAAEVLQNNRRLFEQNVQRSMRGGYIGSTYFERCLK

Results are given in words; binding and its absence hold for the method and conditions named. In cells and extracts the contact can be indirect. These calls come from enrichment with a bait or labelling near it, and not all partners need be listed. Sequences can lack the tags named with a protein.

Turning to “SEC22B (vesicular R-SNARE protein), found in the FLAG-FKBP51 immunoprecipitate from HEK293 cells (from UniProt O75396 1-215)”, the binding entry is “binds”.
With “UBC12, FKBP51 interactor of the HEK293 interactome (from UniProt P61081 1-183)”, the binding entry is reported as “binds”.
